## Screening data, single-dose tests

Mtb glucose medium: 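Phenotypic screen: M. tuberculosis growth, glucose 7H9 medium, 3 days; the read-out is not stated. Concentration: 50 µM. Direction is inferred from retests: higher values go with more growth inhibition. Of about 69,000 compounds tested this way, about 760 (1.1%) reached 50% or more in at least one test.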
Mtb cholesterol medium: 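Phenotypic screen: M. tuberculosis growth, cholesterol and DPPC medium, 4 days; the read-out is not stated. Tested at 50 µM. Direction is inferred from retests: higher values go with more growth inhibition. About 69,000 compounds were tested under these conditions; 0.54% (about 370) showed 50% or more at least once.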

Results are given as percent effect. How 0% and 100% were set is not recorded. Most values in the screen are low, and negative values occur. Compounds were drawn at random from those tested, without regard to their results. Two or more numbers in one place are separate tests of the same structure; such repeats can differ widely.

SMILES,Mtb glucose medium,Mtb cholesterol medium
O=C(CC1Cn2ncnc2NC1=O)Nc1ccc(F)c(F)c1 (stereo not given),11.53,-9.606
CN(C)S(=O)(=O)c1ccc2c(c1)N(Cc1ccccn1)CCC2,-1.727,7.748
CCn1cnnc1CNC(=O)N1CCC(OCc2ccccc2)CC1,-13.06,-5.232
Cc1cc(C(N)=O)ccc1NC(=O)N1CCN(c2cccs2)CC1,24.23 & 10.2,21.11
Cc1ncsc1-c1nnc(C2CCN(Cc3ccc(Cl)cc3)CC2)o1,-17.38,-1.901
N#Cc1cccnc1N1CCCN(C(=O)CCn2cncn2)CC1,-18.3,7.494
O=C(NCCOc1ncc(Cl)cc1Cl)c1cccnc1,-16.46,-2.143 & -8.584
Cc1noc(C)c1CN1CC[C@@H](OCC2CC2)[C@@H](Cc2ccccc2)C1.O=C(O)C(F)(F)F,22.67,-1.064
CC(C)C(C)N(C)C(=O)COc1ccccc1C#N (stereo not given),2.824,-17.19
O=C(Cc1ccccc1)N1CCC2(CC1)COCCN2CC1CC1.O=C(O)C(F)(F)F,-9.112,3.323
CCc1nc(CN2CCCC(NCc3nc4ccccc4o3)C2)no1 (stereo not given),-35.16 & -2.061,-14.61
O=C(c1ccccn1)N1CCc2ncnc(N3CCOCC3)c2CC1,-17.51 & -1.598,-7.964
O=C(NCc1ccccc1)NCc1nc(-c2ccncc2)n[nH]1,-1.191,3.326
CS(=O)(=O)C1CCN(S(=O)(=O)c2ccc(F)c(F)c2)C1 (stereo not given),33.79,11.49
COc1ncccc1C(=O)N1CC(c2nc(-c3ccccn3)no2)C1,-65.48,-2.577
O=S(=O)(c1c(Cl)nc2sccn12)N1CCCC2(CCNC2)C1 (stereo not given),13.79,-15.53
Cc1cc(NCC2(O)CCOCC2)nc2ccccc12,-14.5,10.73
Cc1ccc(CN2CCc3[nH]nc(C(=O)N4CCNC(=O)C4)c3C2)s1.O=C(O)C(F)(F)F,-3.291 & -34.42,0.2439
Nc1cc(CCCNC(=O)NC2CCCC2)nn1-c1ccccc1,-15.34,-9.137
O=C(NCc1nncn1C1CCCCC1)C1COc2ccccc2O1 (stereo not given),18.99,-5.957
Cl.Cn1cc(C(=O)NCc2cncc3c2CCN(S(C)(=O)=O)C3)cn1,-4.691,-23.76
C[C@@H]1CN(c2ccc(Cl)cn2)C[C@]1(C)O,-8.85,-4.446
CCc1nc(C2NC3(CCCC3)C(=O)N2CC2CC2)cs1 (stereo not given),-3.385,-6.698
O=C(c1ccc2[nH]ccc2c1)N1CCn2cc(CN3CCCC3)nc2C1,-27.34,-8.148 & -22.95
COc1ccc(-n2nc(C3CC3)nc2CCn2cnnn2)cc1,-19.24,-18.11
CCCc1noc(C[S+]([O-])CC(=O)NCc2ccccc2)n1 (stereo not given),-45.03,-28.04
CN(C)CCCNC(=O)c1cc(Cl)ccc1Cl,3.726,-18.65
COCc1ccc(C(=O)N2CCC(Oc3ccccc3)(C(=O)O)CC2)o1,10.15,-30.04
[H][C@@]12CS(=O)(=O)C[C@]1([H])N(Cc1cnc(C)nc1)CCN2C(=O)N(C)C,-20.64,-29.01
[H][C@@]12CCN(C)[C@@]1([H])CCN2S(=O)(=O)Cc1ccc(C)cc1,7.486,-2.414
c1cc(-c2nn3c(CN4CCOCC4)nnc3s2)ccn1,-6.884,-3.837
COCCC(=O)NC[C@H]1CC[C@H](C(c2ccccn2)N(C)C)CC1 (stereo not given in full),14.99,16.14
Cc1nn(C)c(Cl)c1CNCCOc1ccc2c(c1)OCO2,-8.098 & 8.259,2.366
CCOCC1COCCC12CCN(C(=O)C1=CCCCC1)CC2 (stereo not given),0.5177 & -28.73,-0.07979
O=C(O)C(F)(F)F.[H][C@@]12CCCO[C@]1([H])[C@H](Oc1ccccn1)CN2S(C)(=O)=O,-4.422 & 12.87,-13.79 & -3.064
CN1CCCc2c1nc1c(c2N)CCC1,-0.3101,-3.202
O=C(NCCc1cccs1)NC1CCN(c2ncccn2)CC1,-12.2,6.151
O=C(O)C(F)(F)F.[H][C@@]12COC[C@H](C(=O)N3CCCCO3)[C@]1([H])CN(Cc1cc(C)c(C)o1)C2,-22.17,18.57 & -2.754
Cc1ccccc1CN(C)CC(O)COCc1ccccc1Cl (stereo not given),-52.38,18.78
COc1nc2cc(C)ccc2cc1CN(C)Cc1n[nH]c2c1CCCC2,28.56,-0.3478 & 9.589
COc1ccc(F)cc1-n1cnc(CCNC(C)=O)c1,-17.7,-21.98
Cc1cccc2c1nc(COCC(=O)O)n2-c1ccc(N)nc1,-23.36,-18.92 & -12.22
Cn1cc(-c2cnc(N3CCOCC3)nc2)cc1C(=O)NCCO.O=C(O)C(F)(F)F,-0.4596,-6.074
Cl.O=C(NC[C@@]1(COc2cnccn2)C[C@@H](O)[C@@H](O)C1)C1CC1,3.891 & -6.773,-18.94
CC(C)COc1cncc(N2CCCC(CC(N)=O)C2)n1 (stereo not given),40.34,14.02
CCn1c(CN(C)C)nnc1C1CCN(Cc2cccc(OC)c2)CC1,-37.94,-17.62
COc1ccc(F)cc1C(=O)N1CCC2(CCC(=O)N(C(C)C)C2)CC1,38.02,8.227
Cc1cn2nc(N3CCn4c(nnc4C(C)C)C3)sc2n1,4.999,-11.67
CNc1cncc(C2CCCN2Cc2ccccc2OCC(=O)O)n1 (stereo not given),-4.094,-1.47
COCC1CN(C(=O)c2ccco2)Cc2nccn2C1 (stereo not given),-14.5,-17.06 & -2.462
Cn1cc(C#N)cc1C(=O)N1CCC2(CCCN(CC3CCC3)C2=O)C1 (stereo not given),-17.1,-7.279 & 4.595
Cc1cc(OCC(=O)N2CCCC(c3nc(C)c(C)s3)C2)no1 (stereo not given),12.6,22.11
CCOCCC(=O)N1CCN(CC(C)O)CC1 (stereo not given),-23.59,-5.057
Cc1ccsc1CNC(=O)c1ccc(N2CCNC2=O)cc1,-7.805,-15.58
CN(CCc1noc(C2CC2)n1)C(=O)CCc1cc2n(n1)CCCNC2,21.56,-6.715
Cc1ccc(NC2CCN(C(=O)COC3CCCC3)CC2)nn1,0.0507,14.12
Clc1ccc2cccnc2c1CN1CCCC(Cn2cncn2)C1 (stereo not given),2.054,-0.1808
CSCc1cccc(S(=O)(=O)Nc2cc(C)on2)c1,11.38,-15.09
O=C(O)C(F)(F)F.[H][C@]12CCN(c3cnccn3)CC[C@]1([H])N(CC(C)C)CCO2,2.346,-3.577
CCOc1ncccc1CNC(=O)c1cccc(C)n1,8.249,-0.8133
CCn1cc2c(n1)CN(Cc1ccc(F)cc1)CC2COCC1CC1.O=C(O)C(F)(F)F (stereo not given),28.93,30.85
CCc1noc(C(C)N(C)CC(=O)Nc2cccc(C)n2)n1 (stereo not given),35.05 & -0.9733,-3.751

The last 7 entries again:

| SMILES | Mtb glucose medium | Mtb cholesterol medium |
|---|---|---|
| `Cc1ccc(NC2CCN(C(=O)COC3CCCC3)CC2)nn1` | 0.0507 | 14.12 |
| `Clc1ccc2cccnc2c1CN1CCCC(Cn2cncn2)C1` (stereo not given) | 2.054 | -0.1808 |
| `CSCc1cccc(S(=O)(=O)Nc2cc(C)on2)c1` | 11.38 | -15.09 |
| `O=C(O)C(F)(F)F.[H][C@]12CCN(c3cnccn3)CC[C@]1([H])N(CC(C)C)CCO2` | 2.346 | -3.577 |
| `CCOc1ncccc1CNC(=O)c1cccc(C)n1` | 8.249 | -0.8133 |
| `CCn1cc2c(n1)CN(Cc1ccc(F)cc1)CC2COCC1CC1.O=C(O)C(F)(F)F` (stereo not given) | 28.93 | 30.85 |
| `CCc1noc(C(C)N(C)CC(=O)Nc2cccc(C)n2)n1` (stereo not given) | 35.05 & -0.9733 | -3.751 |

Measurements from “University of Dundee, Small-Polar-MMV Screening Library” (2021), ChEMBL document CHEMBL3988442.